Strings that start with PEPTIDE1 are HELM notation: dots part the residues, brackets hold end groups and non-standard residues.
Test: general procedure: peptide synthesis; TSTU/DIPEA
Conditions: conjugation step

Substance	conjugation yield
Boc-NH-mini-PEG-CO-E{E[c(RGDyK)]2}2	60% yield
NOTA-c(RGDyK)	61%
NOTA-E[c(RGDyK)]2	52%
NOTA-E{E[c(RGDyK)]2}2	43%

Same assay, conditions: conjugation step, overall

Substance	conjugation yield
E(E{E[c(RGDyK)]2}2)2	46% overall yield
E{E[c(RGDyK)]2}2	58% overall yield
PEPTIDE1{[miniPEG].[Glu]}|PEPTIDE2{R.G.D.[dY].K}|PEPTIDE3{R.G.D.[dY].K}$PEPTIDE2,PEPTIDE2,1:R1-5:R2|PEPTIDE3,PEPTIDE3,1:R1-5:R2|PEPTIDE1,PEPTIDE2,2:R2-5:R3|PEPTIDE1,PEPTIDE3,2:R3-5:R3$$$V2.0	64%

Same assay, conditions: late stage modification step

Substance	step yield
FB-NH-mini-PEG-E[c(RGDyK)]2	69%
PEPTIDE1{[miniPEG].[Glu].[Glu]}|PEPTIDE2{[Glu]}|PEPTIDE3{R.G.D.[dY].K}|PEPTIDE4{R.G.D.[dY].K}|PEPTIDE5{R.G.D.[dY].K}|PEPTIDE6{R.G.D.[dY].K}$PEPTIDE3,PEPTIDE3,1:R1-5:R2|PEPTIDE4,PEPTIDE4,1:R1-5:R2|PEPTIDE5,PEPTIDE5,1:R1-5:R2|PEPTIDE6,PEPTIDE6,1:R1-5:R2|PEPTIDE1,PEPTIDE2,2:R3-1:R1|PEPTIDE1,PEPTIDE3,3:R2-5:R3|PEPTIDE1,PEPTIDE4,3:R3-5:R3|PEPTIDE2,PEPTIDE5,1:R2-5:R3|PEPTIDE2,PEPTIDE6,1:R3-5:R3$$$V2.0	90%
PEPTIDE1{[FB].[miniPEG].[Glu].[Glu]}|PEPTIDE2{[Glu]}|PEPTIDE3{R.G.D.[dY].K}|PEPTIDE4{R.G.D.[dY].K}|PEPTIDE5{R.G.D.[dY].K}|PEPTIDE6{R.G.D.[dY].K}$PEPTIDE3,PEPTIDE3,1:R1-5:R2|PEPTIDE4,PEPTIDE4,1:R1-5:R2|PEPTIDE5,PEPTIDE5,1:R1-5:R2|PEPTIDE6,PEPTIDE6,1:R1-5:R2|PEPTIDE1,PEPTIDE2,3:R3-1:R1|PEPTIDE1,PEPTIDE3,4:R2-5:R3|PEPTIDE1,PEPTIDE4,4:R3-5:R3|PEPTIDE2,PEPTIDE5,1:R2-5:R3|PEPTIDE2,PEPTIDE6,1:R3-5:R3$$$V2.0	65% yield

From patent publication US20080267882A1 (Stanford University, priority 2007, published 2008)
